Source: the supplement of paper PMC4604168 (melanoma cell lines)
Some of the results follow. Many values rest on one well or one pass, so single values are uncertain.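 Imaging used 1,536-well plates; nuclei positive for cleaved PARP by antibody were divided by total DNA-stained nuclei to yield the apoptosis fraction. Doses for screening kept most cells viable, and cell lines differ markedly in resting and induced cleaved-PARP levels.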

These molecules were tested on SkMel30 (assay: cleaved PARP positive nuclei fraction relative to DMSO control; melanoma cells; higher = more apoptosis). Conditions: library dose: low library concentration; 72 h.

In order of rising “cleaved PARP positive nuclei fraction” value:
1. C[C@]1(O)C[C@@H](c2nc(-c3ccc4ccc(-c5ccccc5)nc4c3)c3c(N)nccn32)C1 + O=C(Nc1ccccc1)c1cc([N+](=O)[O-])ccc1Cl [GW9662] (first compound 0.4 µM, partner dose 2 µM)  31.7%
2. C[C@]1(O)C[C@@H](c2nc(-c3ccc4ccc(-c5ccccc5)nc4c3)c3c(N)nccn32)C1 + Cc1cc([N+](=O)[O-])ccc1NS(=O)(=O)c1cc(Cl)ccc1Cl [FH535] (first compound 0.4 µM, partner dose 1 µM)  49.3%
3. CCN(CC)CCNC(=O)c1c(C)[nH]c(/C=C2\C(=O)Nc3ccc(F)cc32)c1C [sunitinib] + O=c1cc(-c2cccc3c2Sc2ccccc2S3)oc(N2CCOCC2)c1 [KU55933] (first compound 0.4 µM, partner dose 1 µM)  61.6%
4. C[C@@H](N)c1ccc(C(=O)Nc2ccnc3[nH]ccc23)cc1 + COc1cc(N2CCC(N3CCN(C)CC3)CC2)ccc1Nc1ncc(Cl)c(Nc2ccccc2S(=O)(=O)C(C)C)n1 [NVP-TAE684] (first compound 0.4 µM, partner dose 0.08 µM)  67%
5. COc1ccc(C2=N[C@@H](c3ccc(Cl)cc3)[C@@H](c3ccc(Cl)cc3)N2C(=O)N2CCNC(=O)C2)c(OC(C)C)c1 [Nutlin-3] + COc1ccc2c(c1)CCC1C2CCC2(C)C(NCCCCCCN3C(=O)C=CC3=O)CCC12 [U73122] (first compound 0.1 µM, partner dose 0.4 µM)  89.7%
6. CS(=O)(=O)c1ccc(C(=O)Nc2ccc(Cl)c(-c3ccccn3)c2)c(Cl)c1 [vismodegib] + Cc1cc(N2CCOCC2)cc2[nH]c(-c3c(NC[C@@H](O)c4cccc(Cl)c4)cc[nH]c3=O)nc12 [BMS536924] (first compound 1 µM, partner dose 0.2 µM)  90.9%
7. CC1(C)CCC(c2ccc(Cl)cc2)=C(CN2CCN(c3ccc(C(=O)NS(=O)(=O)c4ccc(N[C@H](CCN5CCOCC5)CSc5ccccc5)c(S(=O)(=O)C(F)(F)F)c4)cc3)CC2)C1 + CO[C@@H]1[C@H](N(C)C(=O)c2ccccc2)C[C@H]2O[C@]1(C)n1c3ccccc3c3c4c(c5c6ccccc6n2c5c31)C(=O)NC4 [Midostaurin] (first compound 0.4 µM, partner dose 0.08 µM)  142%
8. CCCCCCCCc1ccc(CCC(N)(CO)CO)cc1 [fingolimod] + NCC(=O)Nc1ccc(-n2nc(C(F)(F)F)cc2-c2ccc3c(ccc4ccccc43)c2)cc1 [OSU03012] (first compound 2 µM, partner dose 1 µM)  200%
9. CC(=O)O[C@@]12CO[C@@H]1C[C@H](O)[C@@]1(C)C(=O)[C@H](O)C3=C(C)[C@@H](OC(=O)[C@H](O)[C@@H](NC(=O)OC(C)(C)C)c4ccccc4)C[C@@](O)([C@@H](OC(=O)c4ccccc4)[C@H]21)C3(C)C [Docetaxel] + Cc1ccc(NC(=O)c2cccc(N(C)C)c2)cc1NC(=O)c1ccc(O)cc1 [ZM336372] (first compound 0.0001 µM, partner dose 2 µM)  229%
10. CC1(C)CCC(c2ccc(Cl)cc2)=C(CN2CCN(c3ccc(C(=O)NS(=O)(=O)c4ccc(N[C@H](CCN5CCOCC5)CSc5ccccc5)c(S(=O)(=O)C(F)(F)F)c4)cc3)CC2)C1 + Cc1cc(N2CCOCC2)cc2[nH]c(-c3c(NC[C@@H](O)c4cccc(Cl)c4)cc[nH]c3=O)nc12 [BMS536924] (first compound 0.4 µM, partner dose 0.2 µM)  599%
